# “And” between values parts separate entries of the source, which are not always exact repeats. Equal entries are not always repeated. Some of the results follow. For some of these results: The source does not settle which construct or isoform was used.
# The chains behind the UniProt entries cited, without tags or fusion partners. Where a name states a change or a piece, a line headed by the entry shows the natural chain unless it says otherwise.
# UniProt Q15651: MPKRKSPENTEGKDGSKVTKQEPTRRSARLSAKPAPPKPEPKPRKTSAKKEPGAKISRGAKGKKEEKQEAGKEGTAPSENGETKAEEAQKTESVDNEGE
# UniProt P09651: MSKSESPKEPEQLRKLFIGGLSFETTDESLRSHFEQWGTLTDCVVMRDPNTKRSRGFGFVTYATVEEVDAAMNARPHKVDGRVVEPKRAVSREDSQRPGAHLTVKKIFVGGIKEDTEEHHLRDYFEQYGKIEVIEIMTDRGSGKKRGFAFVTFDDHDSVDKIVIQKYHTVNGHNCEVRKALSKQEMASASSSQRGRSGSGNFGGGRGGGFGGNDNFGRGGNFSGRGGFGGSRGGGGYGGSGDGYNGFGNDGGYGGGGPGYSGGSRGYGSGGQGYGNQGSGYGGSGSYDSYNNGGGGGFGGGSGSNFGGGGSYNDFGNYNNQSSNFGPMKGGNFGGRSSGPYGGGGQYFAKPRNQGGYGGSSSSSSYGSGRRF
# Legend:
# Assay in all cases: protein microarray (ProtoArray v5.0), streptavidin-Alexa Fluor 647
# Details in all cases: 3'-biotin; 20 mM Tris (pH 7.5), 5 mM MgCl2, 100 mM KCl, 0.1% Tween-20, A/T-rich and random oligonucleotide blockers; temperature not stated; high values mean tight binding
# HK1 (human) = test system: HK1 (human)
# HKDC1 (human) = test system: HKDC1 (human)
# [1] = test system: HLA class I histocompatibility antigen, Cw-7 alpha chain (human)
# HLCS (human) = test system: HLCS (human)
# HMG20B (human) = test system: HMG20B (human)
# HMGB1 = biological target: T1, HMGB1 (UniProt P09429)
# T1 sequence: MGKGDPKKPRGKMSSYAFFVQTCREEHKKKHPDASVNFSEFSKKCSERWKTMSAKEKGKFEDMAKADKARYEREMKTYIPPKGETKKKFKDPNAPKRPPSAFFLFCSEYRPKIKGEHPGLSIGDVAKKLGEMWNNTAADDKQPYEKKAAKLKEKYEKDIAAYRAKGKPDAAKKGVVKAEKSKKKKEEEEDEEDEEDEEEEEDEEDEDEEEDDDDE
# HMGB2 = biological target: T2, HMGB2 (UniProt P26583)
# T2 sequence: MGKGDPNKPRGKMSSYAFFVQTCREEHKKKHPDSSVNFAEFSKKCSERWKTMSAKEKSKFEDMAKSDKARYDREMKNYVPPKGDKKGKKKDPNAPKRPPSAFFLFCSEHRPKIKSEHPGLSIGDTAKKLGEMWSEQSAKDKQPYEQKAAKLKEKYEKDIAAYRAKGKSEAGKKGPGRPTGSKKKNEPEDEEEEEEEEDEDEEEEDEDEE
# HMGN3 = HMGN3 (UniProt Q15651)
# HN1 (human) = test system: HN1 (human)
# HNRNPA1 = HNRNPA1 (UniProt P09651)
sequence,measurement,setting,value
GGGGACAGGGGTATGGGGAGGGG [G4-3 biotinylated (CtG)],binding signal,HK1 (human),-0.322 z-score
same,binding signal,HKDC1 (human),-0.313 z-score
same,binding signal,[1],-0.319 z-score
same,binding signal,HLCS (human),-0.281 z-score
same,binding signal,HMG20B (human),-0.333 z-score
same,binding signal,HMGB1,3.41 z-score
same,binding signal,HMGB2,7.26 z-score
same,binding signal,HMGN3,6.66 z-score
same,binding signal,HN1 (human),-0.318 z-score and -0.351 z-score
same,binding signal,HNRNPA1,5.47 z-score
